Results as given in patent US12037375B2, “Protein variant and composition for treating neurodegenerative disease using the same” (KOREA UNIVERSITY RESEARCH AND BUSINESS FOUNDATION, priority 2021, dated 2024).

The chains behind the UniProt entries cited, without tags or fusion partners. Where a name states a change or a piece, a line headed by the entry shows the natural chain unless it says otherwise.
UniProt P05067: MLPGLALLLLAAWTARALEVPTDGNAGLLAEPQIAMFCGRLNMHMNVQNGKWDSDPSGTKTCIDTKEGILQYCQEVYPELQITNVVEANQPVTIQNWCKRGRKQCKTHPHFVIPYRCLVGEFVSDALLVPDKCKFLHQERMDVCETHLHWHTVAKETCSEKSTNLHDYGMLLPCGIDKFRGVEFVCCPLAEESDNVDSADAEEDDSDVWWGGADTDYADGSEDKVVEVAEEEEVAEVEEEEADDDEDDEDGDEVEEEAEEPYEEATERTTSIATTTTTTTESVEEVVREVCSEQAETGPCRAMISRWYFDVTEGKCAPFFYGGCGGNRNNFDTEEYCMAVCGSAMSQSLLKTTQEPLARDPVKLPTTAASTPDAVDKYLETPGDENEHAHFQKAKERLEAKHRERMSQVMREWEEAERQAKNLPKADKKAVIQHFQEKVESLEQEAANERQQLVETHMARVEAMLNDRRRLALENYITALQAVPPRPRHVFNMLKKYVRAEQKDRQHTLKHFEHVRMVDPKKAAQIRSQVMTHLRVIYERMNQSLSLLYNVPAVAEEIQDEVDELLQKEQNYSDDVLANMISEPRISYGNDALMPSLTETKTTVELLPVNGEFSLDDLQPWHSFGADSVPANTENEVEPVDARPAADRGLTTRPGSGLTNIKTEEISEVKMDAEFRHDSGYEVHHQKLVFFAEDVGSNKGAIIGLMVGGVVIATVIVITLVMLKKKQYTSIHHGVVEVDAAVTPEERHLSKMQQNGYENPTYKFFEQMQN

System: amyloid beta (1-42) fibrils
Test: TEM morphological analysis and fiber length measurement of amyloid fibrils
Conditions: 10 uM, 37° C., 1 day, 205 rotations per minute

Row | Substance | average length of fibrils
1 | protein variant substituted with isoleucine 32, leucine 34, and alanine 42: amyloid beta (1-42) variant with isoleucine 32, leucine 34 and alanine 42 substituted with asparagine | 199.3 nm
2 | protein variant substituted with phenylalanine 19, leucine 34, and alanine 42: amyloid beta (1-42) variant with phenylalanine 19, leucine 34 and alanine 42 substituted with asparagine (DAEFRHDSGYEVHHQKLVNFAEDVGSNKGAIIGNMVGGVVIN; Amyloid-beta protein 42; UniProt P05067 672-713, looked up, variant F19N L34N A42N) | 254.4 nm
